# Experimental data taken from patent US3932633A, “Novel o-triazenobenzamides, in treating aggressive behavior” (Uniroyal Inc., priority 1974, dated 1976).
# Entries after “also recorded” stand apart in the source; their conditions may differ.
# Tests used:
# [1] = tested on: electroshock-induced fighting in mice; test: Electroshock-induced fighting in mice; assay type: in vivo, mouse; conditions: i.p. administration
# Description: (§1) The compound of Example 6 was compared with chlorpromazine and chlordiazepoxide for its anti-aggressive activity. Three models of experimentally-induced aggression in rodents were studied (R. D. Sofia, Life Science, 8: 705, 1969).
# [2] = tested on: isolation-induced fighting in mice; test: Isolated fighting mouse (IFM) test / isolated mouse aggression; assay type: in vivo; conditions: dose blocking aggression correlated with dose inducing neurotoxicity
# Procedure: *IFM - Isolated fighting mouse test at a dose of 30 mg/kg
# intraperitoneally; those compounds which protected at least 40% of the
# Two models of aggression are used in the primary screening for neuroleptics, (1) isolation-induced fighting in mice (IFM), and (2) aggression induced in rats by destruction of the septal area (septal rat). Compounds are first submitted, however, to the neuropharmacological profile, a standard procedure (see, e.g., Samuel Irwin, Science, 136, 123 [1962]) employed in screening a compound to determine its usefulness as a central nervous system active compound. Those agents which cause depression over a wide dose range are then submitted to the first anti-aggression screen, the isolation-induced fighting mouse assay.
# as §1
smiles,measurement,setting,value
"CN(C)CCCN1c2ccccc2Sc2ccc(Cl)cc21 [Chlorpromazine, chlorpromazine]","NTD50/ED50, Electroshock-Induced Fighting in Mice",[1]; listed as chlorpromazine,less than one
"CNC1=Nc2ccc(Cl)cc2C(c2ccccc2)=[N+]([O-])C1 [Chlordiazepoxide, chlordiazepoxide]","NTD50/ED50, Electroshock-Induced Fighting in Mice",[1]; listed as chlordiazepoxide,less than one
"Cc1nc(NN=Nc2ccccc2C(N)=O)sc1C(=O)NCc1ccccc1 [Example 6, 2-[3-(4-methyl-5-(N-benzyl-carbamoyl)-2-thiazolyl)-2(or 1)-triazeno]-benzamide]",selectivity in blocking aggression versus chlordiazepoxide,[2],one thousand times
same,selectivity in blocking aggression versus chlorpromazine,[2],more than two thousand times; also recorded: greater than two thousand times
